This is an account of results in PubChem BioAssay AID2685 (National Center for Advancing Translational Sciences (NCATS), 2010).

The other results are listed elsewhere or left out. These are further read-outs of the screen, such as a control signal, another cell line or another target. No call is given for them. The list favours compounds with an active or inconclusive main result. Potencies come from curve fits of mixed quality, noted in brackets.

This test in a line: qHTS Assay for Lipid Storage Modulators in Drosophila S3 Cells.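 On cell number change: cells counted by Cell Tracker Red CMTPX staining in the red channel.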 The note with it: BODIPY lipid droplet fluorescence, 18-24 h; for cell number change: measured here: cell count max response, cells fed with added oleic acid. The method, boiled down:
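Drosophila S3 cells loaded with oleic acid (400 uM, as added) and compounds at several concentrations; lipid droplets imaged by 488-nm laser-scanning cytometry, 500–530 nm intensity and object ratio to cell channel. Percent activity normalized to 20 uM Triacsin C.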

The mark [1] stands for this setting: measured here: lipid fluorescence (Fed channel) AC50, cells fed with added oleic acid.
[2] abbreviates: measured here: cell number channel AC50, cells fed with added oleic acid.

For `O=C(NCc1ccc2c(c1)OCO2)c1ccc(CS(=O)Cc2cccc(Cl)c2)o1` (stereo not given), the AC50 under setting [1] is 6.51 µM [rising, single point].

Turning to `Cc1cccc(NC(=O)CSc2nc(=O)n(CCCN3CCOCC3)c3c2CCCC3)c1`, the cell number change is 34.4%. Further, under setting [2], the half-maximal activity concentration (AC50) is 9.2 µM [rising, single point]. Also, the AC50 under setting [1] is 8.2 µM [rising, partial curve, poor fit].

For the compound `CCN(CC)S(=O)(=O)c1ccc(N2CCN(C)CC2)c(NC(=O)COc2ccc(F)cc2Cl)c1`, the AC50 under setting [2] is 4.11 µM [rising, partial curve, poor fit].

With `Nc1nc2ccccc2n1C(=O)CCc1ccccc1`, the cell number change was determined as 170%. Further, under setting [2], the concentration at half-maximal activity (AC50) is 32.6 µM [rising, partial curve].

For `CCN(c1ccc(OC)cc1)S(=O)(=O)c1cc(-c2cc(C)no2)ccc1C(C)C`, the cell number change came out at 32.5%. Also, the AC50 under setting [2] was 29.1 µM [rising, single point]. In addition, the AC50 under setting [1] was 29.1 µM [rising, single point].

Regarding `CCn1c(SCC(=O)Nc2ccc(C)cc2)nnc1-c1ccccn1`, the cell number change amounted to 6.17%. Moreover, under setting [1], the AC50 was 18.4 µM [falling, single point].

As to `O=C(CCC(=O)NCCCc1ccccc1)NCCCc1ccccc1`, the cell number change was -1.81%. In addition, the AC50 under setting [1] is 11.6 µM [falling, partial curve].

Turning to `O=C(/C=C/c1ccc(O)c([N+](=O)[O-])c1)c1ccc2ccccc2c1`, the cell number change was -11.8%.

With `COc1ccc(C)cc1NC(=O)C(=O)N/N=C(\C)CC(=O)Nc1cccnc1`, the cell number change is 26.4%. In addition, the AC50 under setting [1] was 3.26 µM [rising, partial curve].

Consider `O=C(OCc1nc2ccccc2s1)c1ccccc1O`, for which the cell number change came out at 2.81%. Also, the AC50 under setting [2] was 0.731 µM [falling, full curve, poor fit]. For the same compound, the AC50 under setting [1] was 0.731 µM [falling, full curve, poor fit].

Regarding `Nn1c(Nc2ccccc2)nc2ccccc2c1=O`, the cell number change was -26.2%. The AC50 under setting [1] is 20.6 µM [falling, single point].

Take `CCC(C)(C)n1nnnc1C(CC(C)C)N1CCC(C(N)=O)CC1` (stereo not given): the cell number change is -27.8%. In addition, the AC50 under setting [2] is 0.651 µM [falling, full curve, poor fit].

As for `COc1cccc2cc(C(N)=O)oc12`, the cell number change came out at 45.2%. Moreover, the AC50 under setting [2] is 20 µM [rising, partial curve, poor fit]. The AC50 under setting [1] is 35.5 µM [rising, single point].

As for `Cc1ccc(NC(=O)c2ccc(=O)[nH]n2)cc1S(=O)(=O)Nc1ccccc1Cl`, the AC50 under setting [1] is 0.103 µM [rising, full curve, poor fit].

For the compound `O=C(NC1CCCCCCC1)c1ccc(S(=O)(=O)N2CCCC2)cc1`, the cell number change turned out to be 8.79%.

`Cc1[nH]nc2c1C(c1cccnc1)N(c1ccc(Br)cc1)C2=O` (stereo not given): the cell number change was -32.9%. In addition, the AC50 under setting [1] is 32.6 µM [falling, partial curve, poor fit].

As for `CC(C)(CN1CCN(Cc2ccccc2)CC1)NS(=O)(=O)c1ccccc1`, the cell number change was -1.07%. Besides, the AC50 under setting [1] was 0.103 µM [falling, full curve, poor fit].

As for `COc1c(OC(C)=O)ccc(/C=C/c2ccc3cccc(OCc4ccccc4)c3n2)c1[N+](=O)[O-]`, the cell number change was -23.3%. For the same compound, the AC50 under setting [1] is 23.1 µM [falling, single point].

With `CCN1C(=O)/C(=C2/C=Cc3ccccc3N2C)OC1=S`, the cell number change was 2.69%.

With `CCS(=O)(=O)c1ccc(C(=O)NC2CC2)c(Cl)c1Cl`, the cell number change came out at 19.5%. In addition, the concentration at half-maximal activity (AC50) under setting [1] was 0.00461 µM [rising, full curve, poor fit].

`Cc1[nH][nH]c(=O)c1C(c1ccc2c(c1)OCO2)c1c(C)[nH][nH]c1=O`: under setting [1], the AC50 was 0.146 µM [falling, full curve, poor fit].

Consider `CCOC(=O)c1c(C)c(C#N)c2c3ccccc3ccn12`, for which the cell number change worked out at 19.7%.

Regarding `O=C(CSc1nnc2ccc(-c3ccccn3)nn12)Nc1ccc(F)cc1F`, the cell number change is 4%.

Regarding `CC(=O)NCCC(=O)N1CCc2c([nH]c3ccccc23)C1c1cccc(Cl)c1` (stereo not given), the cell number change is -15.8%.

In the case of `Cc1ccc(S(=O)(=O)N2CCN(C(=O)COC(=O)CCCOc3ccccc3)CC2)c(C)c1`, the cell number change is 4.04%. Under setting [2], the AC50 was 6.51 µM [falling, single point]. For the same compound, the AC50 under setting [1] is 1.84 µM [falling, partial curve].

Regarding `COC(=O)c1cn(NC(=O)c2ccc([N+](=O)[O-])c(C)c2)c(=O)c2ccccc12`, the cell number change was determined as 4.34%.

Turning to `COc1ccc(N(C)S(=O)(=O)c2ccc(Cl)c(C(=O)NNC(=O)c3ccccc3O)c2)cc1`, the cell number change is -15.5%. Also, under setting [1], the half-maximal activity concentration (AC50) was 0.146 µM [falling, full curve, poor fit].

As to `Cc1ccc(-c2noc(CNS(=O)(=O)c3ccccc3)n2)cc1`, the cell number change worked out at 13.2%. For the same compound, the AC50 under setting [1] was 8.2 µM [rising, partial curve, poor fit].

For `Cc1ccc(N2CC(C(=O)N3CCN(C(=O)c4ccco4)CC3)CC2=O)cc1` (stereo not given), under setting [2], the AC50 is 6.51 µM [falling, single point].

Regarding `O=C(c1ccc(Cl)c(S(=O)(=O)N2CCCC2)c1)N1CCN(c2ccc(F)cc2)CC1`, under setting [1], the AC50 is 29.1 µM [rising, partial curve].

In the case of `CCN1CCN(CC(O)COCc2ccccc2)CC1` (stereo not given), the cell number change was -20.5%. Under setting [1], the AC50 was 32.6 µM [falling, single point].

Take `O=C1CC(c2cccc(O)c2)Oc2ccccc21` (stereo not given): the cell number change worked out at 7.78%. In addition, the AC50 under setting [1] was 9.2 µM [rising, partial curve, poor fit].

In the case of `Cc1ccc(N(CC(=O)Nc2ccccc2C(=O)NCc2ccco2)S(=O)(=O)c2ccccc2)cc1C`, the cell number change is 26.9%. Further, the AC50 under setting [1] was 29.1 µM [rising, single point].

For the compound `CCOC(=O)c1c(C)[nH]c(C(=O)OCC(=O)NC(C)C)c1C`, the cell number change was 43.3%. Moreover, under setting [2], the half-maximal activity concentration (AC50) was 3.26 µM [rising, full curve]. Also, the AC50 under setting [1] was 4.11 µM [rising, partial curve].

On to `CCC(=O)Nc1nnc(S(=O)(=O)N(CC(C)C)c2ccccc2)s1`, for which the cell number change is 20.2%.

As for `c1ccn(-c2ccc(N3CCOCC3)cc2)c1`, the cell number change is -5.06%. In addition, the AC50 under setting [1] was 0.517 µM [rising, single point].

Regarding `Cc1cc(=O)oc2c(C)c(OC(C)C(=O)NCc3ccccn3)ccc12` (stereo not given), the cell number change is -40%. The AC50 under setting [2] is 11.6 µM [falling, partial curve, poor fit]. Besides, the half-maximal activity concentration (AC50) under setting [1] was 18.4 µM [falling, partial curve, poor fit].

As for `CCOc1ccc(C(=O)N2CCc3ccccc32)cc1OCC`, the cell number change was 11.6%.

Regarding `CCN1CCN(c2ccc(S(=O)(=O)N3CCCCC3)cc2NC(=O)c2ccc([N+](=O)[O-])o2)CC1`, the AC50 was 0.731 µM [rising, full curve, poor fit] under setting [2] and 0.259 µM [rising, partial curve, poor fit] under setting [1].

With `CC1=C(C)NC(=S)SC1`, the cell number change amounted to 12.3%. Further, the AC50 under setting [1] is 2.31 µM [falling, partial curve, poor fit].

As for `COc1ccc(CCNC(=O)c2ccc(OCc3c(C)noc3C)cc2)cc1OC`, the cell number change is 5.64%. The AC50 under setting [1] is 29.1 µM [falling, single point].

For `O=c1nc2ccc(Cl)cn2c2ccc(S(=O)(=O)N3CCOCC3)cc12`, the cell number change is -2.14%. For the same compound, the AC50 under setting [1] was 0.651 µM [falling, full curve].

With `COC(=O)COc1ccc(-c2nccc(-c3ccc(Br)cc3)n2)cc1`, the cell number change was 1.83%. Under setting [1], the AC50 is 7.31 µM [rising, partial curve].

For the compound `CCN(CC(=O)NCc1cccs1)C(=O)c1ccc([N+](=O)[O-])o1`, the AC50 under setting [2] was 6.51 µM [falling, single point].

As to `COc1cc(NC(=O)CN(C)S(=O)(=O)c2ccc3c(c2)CC(C)N3C(C)=O)cc(OC)c1` (stereo not given), the cell number change was 5.31%. Further, the AC50 under setting [2] was 2.59 µM [rising, partial curve, poor fit].

For the compound `COc1ccc(C(=O)c2no[n+]([O-])c2C(=O)c2ccc(OC)cc2)cc1`, the cell number change is -3.94%. The AC50 under setting [1] was 29.1 µM [falling, single point].

For `O=C1c2cccc(Sc3ccccc3)c2C(=O)c2c(Sc3ccccc3)cccc21`, the cell number change is -64.9%. Further, the half-maximal activity concentration (AC50) under setting [2] is 3.26 µM [falling, full curve]. In addition, under setting [1], the AC50 is 2.31 µM [falling, full curve].

Regarding `CCn1cc(CN2CCC(n3nccc3NC(=O)c3ccccc3C)CC2)c(C)n1`, the cell number change was found to be 3.4%.

Consider `COc1ccccc1CNC(=O)CCC(=O)Nc1nnc(C(C)C)s1`, for which the cell number change was -6.28%. For the same compound, the AC50 under setting [1] was 29.1 µM [rising, single point].

As for `Cc1cc2oc(=O)cc(CN3CCCCC3)c2cc1O`, the cell number change is 11.7%.

`O=C(CCc1nc(-c2ccccc2F)no1)NCCN1CCN(Cc2ccccc2)CC1`: the cell number change was -22.6%.

With `CCOc1ccc(NC(=O)CSc2cn[nH]n2)cc1`, the cell number change amounted to 6.43%.

Take `Cc1csc(N/N=C/c2c(F)cccc2Cl)n1`: the cell number change is -4.17%. Besides, the AC50 under setting [1] is 29.1 µM [falling, partial curve, poor fit].

Take `Cc1ccc(S(=O)(=O)N(C)c2ccccc2)cc1`: the cell number change was -5.52%. Under setting [2], the AC50 was 0.00461 µM [falling, full curve, poor fit]. Besides, the AC50 under setting [1] is 1.16 µM [falling, full curve].

In the case of `O=C(c1ccc(Br)s1)N1CCN(Cc2ccc3c(c2)OCO3)CC1`, the cell number change worked out at 3.52%. Moreover, under setting [1], the AC50 is 18.4 µM [rising, partial curve].

Take `COc1ccccc1CN(C)C(=O)c1cccc(S(=O)(=O)N2CCCc3ccccc32)c1`: the cell number change was -18.7%. Further, the AC50 under setting [1] was 1.84 µM [rising, partial curve, poor fit].

Turning to `COc1cc(CC(=O)Nc2nc(-c3ccccc3)c(C(C)=O)s2)cc(OC)c1OC`, the cell number change was -2.99%. Under setting [1], the AC50 is 29.1 µM [rising, single point].

For the compound `Cc1ccccc1NC(=O)N1CCCC1C(=O)NCc1ccccc1` (stereo not given), the cell number change stood at 27.4%. The AC50 under setting [1] was 29.1 µM [rising, single point].

Regarding `CC(C)c1nc(CNC(=O)CC2C(=O)NCCN2Cc2cccc(F)c2F)cs1` (stereo not given), the cell number change stood at 18.7%. Besides, under setting [1], the AC50 is 4.11 µM [rising, partial curve, poor fit].

In the case of `CC(C)(C)OC(=O)NCc1ccc(CNC(=O)c2[nH]cnc2C(=O)N[C@@H](Cc2ccccc2)C(=O)OCc2ccccc2)cc1`, the cell number change was determined as 74.3%. Moreover, under setting [2], the AC50 is 18.4 µM [rising, partial curve]. Besides, the concentration at half-maximal activity (AC50) under setting [1] is 2.91 µM [falling, partial curve].

For orientation: AC50 means the midpoint of the concentration-response curve, whichever way the signal moves. A lower AC50 goes with activity at low concentration.
